According to PMC6358605:

Biological target: Full-length wild-type Chinese hamster BiP (Chinese hamster)
Assay: fluorescence polarisation; 40 µM BiP incubated with 1.5 µM LY-labeled peptide and 0.5 mM ADP overnight at room temperature in FP buffer; dissociation then induced with 4 mM ATP, with or without MANF proteins; both purified

B1: lucifer yellow (LY)-labeled substrate peptide (peptide)
peptide: HTFPAVLGSC
modifications: lucifer yellow (LY) label
- binding: binds

These are yes or no findings as the source states them, for the method shown. A result given as binding can be weak or reduced; the word gives no strength. Sequences can lack the tags named with a protein.
